The source of these data is ChEMBL document CHEMBL2331307, “Modulation of cytochromes P450 with xanthone-based molecules: from aromatase to aldosterone synthase and steroid 11β-hydroxylase inhibition” (J Med Chem, 2013).

For the assay, the target named is T1, Steroid 17-alpha-hydroxylase/17,20 lyase (Homo sapiens, UniProt P05093).
T1 sequence (P05093 whole entry): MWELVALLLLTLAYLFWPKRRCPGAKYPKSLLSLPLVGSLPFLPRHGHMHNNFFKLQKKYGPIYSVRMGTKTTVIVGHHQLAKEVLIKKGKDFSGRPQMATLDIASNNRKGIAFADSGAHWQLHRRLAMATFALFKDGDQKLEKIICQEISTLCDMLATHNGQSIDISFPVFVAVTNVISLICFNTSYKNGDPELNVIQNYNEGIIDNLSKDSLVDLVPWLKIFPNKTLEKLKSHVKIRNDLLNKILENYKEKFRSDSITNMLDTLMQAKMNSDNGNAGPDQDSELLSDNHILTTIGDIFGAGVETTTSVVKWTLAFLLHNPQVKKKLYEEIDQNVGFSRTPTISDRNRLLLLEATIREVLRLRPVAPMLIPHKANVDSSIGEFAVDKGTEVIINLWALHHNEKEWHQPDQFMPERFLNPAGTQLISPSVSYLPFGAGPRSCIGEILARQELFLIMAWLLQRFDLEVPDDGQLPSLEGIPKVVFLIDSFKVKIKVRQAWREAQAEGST

Take `N#Cc1ccc(C2CCCc3cncn32)cc1` (stereo unspecified) [FADROZOLE]: the half-inhibitory concentration (IC50) was > 5 µM.

One may read the IC50 as the concentration that gives 50% inhibition. A high value points to lower potency.
